The source of these data is patent US20100172907A1.

Results are given in words; binding and its absence hold for the method and conditions named. Binding calls can cover weak binding; strength is not graded here.

In test [1] the target is amyloid plaques in the brain of APP/PS2 double transgenic mice. The experiment in a line: in vivo plaque decoration after 3 x 2 mg i.v., confocal microscopy.
For test [2] the target is unchanged. The test is described as follows: in vivo plaque decoration, 2 mg i.v. at day 0, 3 and 6, sacrifice at day 9; confocal microscopy of cryostat sections, goat anti-human IgG-Cy3, counterstain BAP-2-Alexa488.

B1: MS-R #7.9.H7 IgG1 (antibody, V domains shown)
VH: QVELVESGGGLVQPGGSLRLSCAASGFTFSSYAMSWVRQAPGKGLEWVSAINASGTRTYYADSVKGRFTISRDNSKNTLYLQMNSLRAEDTAVYYCARGKGNTHKPYGYVRYFDVWGQGTLVTVSS
VL: DIVLTQSPATLSLSPGERATLSCRASQSVSSSYLAWYQQKPGQAPRLLIYGASSRATGVPARFSGSGSGTDFTLTISSLEPEDFATYYCLQIYNMPITFGQGTKVEIKR
Turning to B1, the binding result in test [1] and in test [2] was “binds” each time.
